Single values of this set are uncertain.
B1: Rpb7; numbered along this chain (parent)
chain: MFFIKDLSLNITLHPSFFGPRMKQYLKTKLLEEVEGSCTGKFGYILCVLDYDNIDIQRGRILPTDGSAEFNVKYRAVVFKPFKGEVVDGTVVSCSQHGFEVQVGPMKVFVTKHLMPQDLTFNAGSNPPSYQSSEDVITIKSRIRVKIEGCISQVSSIHAIGSIKEDYLGAI

Tests used:
[1] = variants of: B1; assay: log2 fold change of mutant abundance, UV-irradiated vs unirradiated; higher = more UV resistant (enriched after UV); conditions: with Saccharomyces cerevisiae rad7Δ rad26Δ; UV dose (J/m2): 10; genetic background: rad7Δ rad26Δ rpb7Δ + plasmid RPB7 library; outgrowth: 10 cell divisions
[2] = variants of: B1; assay: NOISeq theta enrichment statistic, UV-irradiated vs unirradiated (dimensionless); higher = more UV resistant (enriched after UV); conditions: with Saccharomyces cerevisiae rad7Δ rad26Δ; UV dose (J/m2): 10; genetic background: rad7Δ rad26Δ rpb7Δ + plasmid RPB7 library; outgrowth: 10 cell divisions

Row | Variant | log2 fold change of mutant abundance [1] | NOISeq theta enrichment statistic [2]
1 | MFFIKDLSLNITLHPSFFGPRMKQYLKTKLLEEVEGSCTGKFGYILCVLDYDNIDIQRGRILPTDGSAEFNVKYRAVVFKPFKGEVVDGTVVSCSQHGFEVQVSPMKVFVTKHLMPQDLTFNAGSNPPSYQSSEDVITIKSRIRVKIEGCISQVSSIHAIGSIKEDYLGAI [G104S] | 0.0239 | 0.0905
2 | MFFIKDLSLNITLHPSFFGPRMKQYLKTKLLEEVEGSCTGKFGYILCVLDYDNIDIQRGRILPTDGSAEFNVKYRAVVFKPFKGEVVDGTVVSCSQHGFEVQVWPMKVFVTKHLMPQDLTFNAGSNPPSYQSSEDVITIKSRIRVKIEGCISQVSSIHAIGSIKEDYLGAI [G104W] | 0.0252 | 0.0195
3 | MFFIKDLSLNITLHPSFFGPRMKQYLKTKLLEEVEGSCTGKFGYILCVLDYDNIDIQRGRILPTDGSAEFNVKYRAVVFKPFKGEVVDGTVVSCSQHGFEVQVYPMKVFVTKHLMPQDLTFNAGSNPPSYQSSEDVITIKSRIRVKIEGCISQVSSIHAIGSIKEDYLGAI [G104Y] | 0.0981 | 0.0717
4 | MFFIKDLSLNITLHPSFFGPRMKQYLKTKLLEEVEGSCTGKFGYILCVLDYDNIDIQRGRILPTDGSAEFNVKYRAVVFKPFKGEVVDGTVVSCSQHGFEVQVTPMKVFVTKHLMPQDLTFNAGSNPPSYQSSEDVITIKSRIRVKIEGCISQVSSIHAIGSIKEDYLGAI [G104T] | 0.0588 | 0.0434
5 | MFFIKDLSLNITLHPSFFGPRMKQYLKTKLLEEVEGSCTGKFGYILCVLDYDNIDIQRGRILPTDGSAEFNVKYRAVVFKPFKGEVVDGTVVSCSQHGFEVQVRPMKVFVTKHLMPQDLTFNAGSNPPSYQSSEDVITIKSRIRVKIEGCISQVSSIHAIGSIKEDYLGAI [G104R] | 0.0375 | 0.0829
6 | MFFIKDLSLNITLHPSFFGPRMKQYLKTKLLEEVEGSCTGKFGYILCVLDYDNIDIQRGRILPTDGSAEFNVKYRAVVFKPFKGEVVDGTVVSCSQHGFEVQVVPMKVFVTKHLMPQDLTFNAGSNPPSYQSSEDVITIKSRIRVKIEGCISQVSSIHAIGSIKEDYLGAI [G104V] | 0.0502 | 0.21
7 | MFFIKDLSLNITLHPSFFGPRMKQYLKTKLLEEVEGSCTGKFGYILCVLDYDNIDIQRGRILPTDGSAEFNVKYRAVVFKPFKGEVVDGTVVSCSQHGFEVQVGQMKVFVTKHLMPQDLTFNAGSNPPSYQSSEDVITIKSRIRVKIEGCISQVSSIHAIGSIKEDYLGAI [P105Q] | 0.0171 | 0.1
8 | MFFIKDLSLNITLHPSFFGPRMKQYLKTKLLEEVEGSCTGKFGYILCVLDYDNIDIQRGRILPTDGSAEFNVKYRAVVFKPFKGEVVDGTVVSCSQHGFEVQVGKMKVFVTKHLMPQDLTFNAGSNPPSYQSSEDVITIKSRIRVKIEGCISQVSSIHAIGSIKEDYLGAI [P105K] | 0.274 | 0.291
9 | MFFIKDLSLNITLHPSFFGPRMKQYLKTKLLEEVEGSCTGKFGYILCVLDYDNIDIQRGRILPTDGSAEFNVKYRAVVFKPFKGEVVDGTVVSCSQHGFEVQVGIMKVFVTKHLMPQDLTFNAGSNPPSYQSSEDVITIKSRIRVKIEGCISQVSSIHAIGSIKEDYLGAI [P105I] | 0.616 | 0.396
10 | MFFIKDLSLNITLHPSFFGPRMKQYLKTKLLEEVEGSCTGKFGYILCVLDYDNIDIQRGRILPTDGSAEFNVKYRAVVFKPFKGEVVDGTVVSCSQHGFEVQVGHMKVFVTKHLMPQDLTFNAGSNPPSYQSSEDVITIKSRIRVKIEGCISQVSSIHAIGSIKEDYLGAI [P105H] | 0.0871 | 0.157
11 | MFFIKDLSLNITLHPSFFGPRMKQYLKTKLLEEVEGSCTGKFGYILCVLDYDNIDIQRGRILPTDGSAEFNVKYRAVVFKPFKGEVVDGTVVSCSQHGFEVQVGAMKVFVTKHLMPQDLTFNAGSNPPSYQSSEDVITIKSRIRVKIEGCISQVSSIHAIGSIKEDYLGAI [P105A] | -0.0793 | -0.146
12 | MFFIKDLSLNITLHPSFFGPRMKQYLKTKLLEEVEGSCTGKFGYILCVLDYDNIDIQRGRILPTDGSAEFNVKYRAVVFKPFKGEVVDGTVVSCSQHGFEVQVGLMKVFVTKHLMPQDLTFNAGSNPPSYQSSEDVITIKSRIRVKIEGCISQVSSIHAIGSIKEDYLGAI [P105L] | 0.537 | 1.01
13 | MFFIKDLSLNITLHPSFFGPRMKQYLKTKLLEEVEGSCTGKFGYILCVLDYDNIDIQRGRILPTDGSAEFNVKYRAVVFKPFKGEVVDGTVVSCSQHGFEVQVGRMKVFVTKHLMPQDLTFNAGSNPPSYQSSEDVITIKSRIRVKIEGCISQVSSIHAIGSIKEDYLGAI [P105R] | 0.142 | 0.275
14 | MFFIKDLSLNITLHPSFFGPRMKQYLKTKLLEEVEGSCTGKFGYILCVLDYDNIDIQRGRILPTDGSAEFNVKYRAVVFKPFKGEVVDGTVVSCSQHGFEVQVGNMKVFVTKHLMPQDLTFNAGSNPPSYQSSEDVITIKSRIRVKIEGCISQVSSIHAIGSIKEDYLGAI [P105N] | -0.406 | -0.304
15 | MFFIKDLSLNITLHPSFFGPRMKQYLKTKLLEEVEGSCTGKFGYILCVLDYDNIDIQRGRILPTDGSAEFNVKYRAVVFKPFKGEVVDGTVVSCSQHGFEVQVGEMKVFVTKHLMPQDLTFNAGSNPPSYQSSEDVITIKSRIRVKIEGCISQVSSIHAIGSIKEDYLGAI [P105E] | -0.111 | -0.0846
16 | MFFIKDLSLNITLHPSFFGPRMKQYLKTKLLEEVEGSCTGKFGYILCVLDYDNIDIQRGRILPTDGSAEFNVKYRAVVFKPFKGEVVDGTVVSCSQHGFEVQVGGMKVFVTKHLMPQDLTFNAGSNPPSYQSSEDVITIKSRIRVKIEGCISQVSSIHAIGSIKEDYLGAI [P105G] | 0.58 | 0.403
17 | MFFIKDLSLNITLHPSFFGPRMKQYLKTKLLEEVEGSCTGKFGYILCVLDYDNIDIQRGRILPTDGSAEFNVKYRAVVFKPFKGEVVDGTVVSCSQHGFEVQVGSMKVFVTKHLMPQDLTFNAGSNPPSYQSSEDVITIKSRIRVKIEGCISQVSSIHAIGSIKEDYLGAI [P105S] | -0.00607 | -0.0159

Whole records from above. Order of values: log2 fold change of mutant abundance [1]	NOISeq theta enrichment statistic [2]
MFFIKDLSLNITLHPSFFGPRMKQYLKTKLLEEVEGSCTGKFGYILCVLDYDNIDIQRGRILPTDGSAEFNVKYRAVVFKPFKGEVVDGTVVSCSQHGFEVQVSPMKVFVTKHLMPQDLTFNAGSNPPSYQSSEDVITIKSRIRVKIEGCISQVSSIHAIGSIKEDYLGAI [G104S] is listed with 0.0239	0.0905
MFFIKDLSLNITLHPSFFGPRMKQYLKTKLLEEVEGSCTGKFGYILCVLDYDNIDIQRGRILPTDGSAEFNVKYRAVVFKPFKGEVVDGTVVSCSQHGFEVQVGKMKVFVTKHLMPQDLTFNAGSNPPSYQSSEDVITIKSRIRVKIEGCISQVSSIHAIGSIKEDYLGAI [P105K] is listed with 0.274	0.291

From the supplement of paper PMC10382679
